Results from PubChem BioAssay AID2685 (National Center for Advancing Translational Sciences (NCATS), 2010).
The other results are listed elsewhere or left out. Shown are side measurements of this screen, not its main read-out; they come without a call. Compounds called inactive in the main read-out are mostly missing here. The note in brackets gives the kind of curve behind each potency; many fits are weak.

Experiment: qHTS Assay for Lipid Storage Modulators in Drosophila S3 Cells;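 as to cell number change: cells counted by Cell Tracker Red CMTPX staining in the red channel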
Settings: BODIPY lipid droplet fluorescence, 18-24 h; for cell number change: measured here: cell count max response, cells fed with added oleic acid
Procedure, shortened: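 Drosophila S3 cells loaded with oleic acid (400 uM, as added) and compounds at several concentrations; lipid droplets imaged by 488-nm laser-scanning cytometry, 500–530 nm intensity and object ratio to cell channel. Percent activity normalized to 20 uM Triacsin C.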

[1] = measured here: lipid fluorescence (Fed channel) AC50, cells fed with added oleic acid
[2] = measured here: cell number channel AC50, cells fed with added oleic acid

Compound	cell number change [%]	AC50 [1]	AC50 [2]
Cn1c(=O)c2sccc2n2c(CCCC(=O)NCCc3ccccc3)nnc12	-1.53	6.51 µM [falling, single point]	
CCOC(=O)C1C(=O)CC(C)(O)C(C(=O)OCC)C1c1cccs1 (stereo not drawn)	8.43		
CC(C)CCn1c(COc2ccccc2)n[nH]c1=S	17.2	0.731 µM [rising, full curve]	1.3 µM [rising, single point]
COc1cnc(-c2ccccn2)nc1N(C)C	-33.2		2.31 µM [rising, partial curve, poor fit]
COc1ccc(NC(=O)Nc2cccnc2)c(OC)c1	5.21		
CCN(CC)C(=O)c1ccc(Cn2cc([N+](=O)[O-])cn2)o1	14.9	16.4 µM [rising, single point]	
COC(=O)c1sccc1NC(=S)Nc1cccc(F)c1	27.2	6.51 µM [falling, single point]	6.51 µM [falling, single point]
Cc1cc(C)c2cc(C(O)c3nnnn3Cc3ccccc3)c(=O)[nH]c2c1 (stereo not drawn)	19.3	1.46 µM [rising, partial curve]	
COc1ccc(S(=O)(=O)N2CCOC23CCN(S(=O)(=O)c2cccs2)CC3)cc1		29.1 µM [falling, single point]	
COc1ccc(OC)c(NC(=O)c2cc(-c3c(C)cc(C)cc3O)n[nH]2)c1		0.231 µM [falling, full curve]	
O=C(NCCCc1ccccc1)C1CCN(S(=O)(=O)c2ccc(F)cc2)CC1		0.517 µM [falling, single point]	
CCNC(=O)c1cc2c(=O)n3cccc(C)c3nc2n(CCc2ccccc2)c1=N		0.13 µM [rising, partial curve, poor fit]	
CC1OC(Nc2cccc3ccccc23)C(O)C(O)C1O (stereo not drawn)	89.2	29.1 µM [rising, single point]	6.51 µM [falling, single point]
CN1C(=O)CC(c2ccccc2)CC1=O	23	2.91 µM [rising, full curve]	
N/C(=N\OC(=O)CCC1CCCC1)c1ccncc1	-1.84		4.11 µM [rising, partial curve, poor fit]
Cn1c(NNC(=O)C2CCCCC2)cc(=O)n(C)c1=O	-19.9		
O=S(=O)(c1cccc(Cl)c1)N1CN(CC2CCCO2)c2nc3ccccc3nc21 (stereo not drawn)			6.51 µM [rising, single point]
CCc1cc2cc(C)ccc2nc1SCC(=O)N1CCN(C(=O)c2ccco2)CC1	-4.45	6.51 µM [rising, single point]	
O=C(Nc1cccc(Cl)c1Cl)c1ccccc1OCC(=O)N1CCOCC1	5.17		
CCOc1ccc(-n2c(SCC(=O)Nc3ccc(OC)cc3)nc3sc4c(c3c2=O)CCN(C)C4)cc1	13.8	11.6 µM [rising, partial curve]	

Compound	cell number change [%]	AC50 [1]	AC50 [2]
CCCCN1C(=S)NC[C@@H]1C(C)CC (stereo partly drawn)	14.3		
COc1c2occc2cc2ccc(=O)oc12		0.92 µM [rising, partial curve]	1.64 µM [rising, partial curve]
CCOC(=O)c1c(C)[nH]c(C(=O)OCc2ccc(F)cc2)c1C	16.4	2.91 µM [rising, full curve]	
O=S(=O)(NC1CCCCC1)c1cccs1	7.69		
O=C(Oc1c(Cl)cc(Cl)c2cccnc12)N1CCCCC1	248	6.51 µM [rising, single point]	13 µM [rising, partial curve]
O=C(CSc1ccc(-c2cccnc2)nn1)Nc1ccc(F)cc1F	17.3		
COC(=O)C1CCN(CC(=O)Nc2ccccc2Sc2ccccc2)CC1	-11.1		
O=C(CC12CC3CC(CC(C3)C1)C2)Nc1ccc(C(=O)O)cc1		29.1 µM [rising, single point]	
CCN(CC)S(=O)(=O)c1ccc(OC)c(NC(=O)c2cc(=O)[nH]c3ccccc23)c1		6.51 µM [rising, single point]	5.8 µM [rising, single point]
CCOC(=O)c1c(OCCO)nn(-c2ccccc2)c1N	40.6		
CCC(C)(C(=O)NC1CCCCC1)N(Cc1ccco1)C(=O)c1ccc2c(c1)OCO2 (stereo not drawn)		6.51 µM [rising, single point]	4.61 µM [rising, single point]
C=C(C)C1CC=C(C)/C(=N/NC(=O)C2CC2c2ccccc2)C1 (stereo not drawn)	64.1	29.1 µM [rising, partial curve, poor fit]	0.058 µM [rising, full curve, poor fit]
Brc1ccc(OCc2nc3ccccc3[nH]2)cc1	12	0.411 µM [falling, full curve]	
O=C(NC(=S)N1CCOCC1)C12CCC3CC(CC(C3)C1)C2	-18.4	29.1 µM [rising, single point]	
CCCC(=O)N(c1ccc2oc(C)c(C(C)=O)c2c1)S(=O)(=O)c1ccc(C(=O)O)cc1	6.31	29.1 µM [rising, single point]	
O=C(CCS(=O)(=O)Cc1ccccc1)N1CCc2ccccc2C1	30.8	6.51 µM [rising, single point]	5.17 µM [rising, full curve, poor fit]
CCC(CC)COC(=O)C1=C(C)NC(=O)NC1c1ccc2c(c1)OCO2 (stereo not drawn)	-50.4	29.1 µM [falling, single point]	
CCC(=O)Nc1cccc(NC(=S)NC(=O)c2cccc(C)c2)c1	-10.5		
N#Cc1c(-c2ccc(Cl)cc2)ccn2nc(CCC(=O)O)nc12		20.6 µM [rising, partial curve, poor fit]	
CCN(C(=O)Nc1cccc(Cl)c1)c1ccccc1	-3.86		

Compound	cell number change [%]	AC50 [1]	AC50 [2]
O=C(COC(=O)Cc1ccc(Cl)cc1Cl)Nc1ccc(OC(F)F)cc1	16.7	25.9 µM [rising, single point]	0.00461 µM [falling, full curve, poor fit]
Oc1ccc(N=Cc2ccc(O)c(O)c2)cc1	-35.9	4.11 µM [falling, full curve]	4.61 µM [falling, full curve]
COc1ccc(OC)c(/C=N\NC(=O)c2cc3c(ccc4ccccc43)o2)c1	-11.3		
Cc1cc(C)c2[nH]c(C)c(CN3CCCCCC3)c(=O)c2c1	23.3	0.291 µM [falling, partial curve, poor fit]	
COc1cccc(C(=O)COC(=O)CCC(=O)NC2CCCCC2)c1	-10.7	6.51 µM [falling, partial curve, poor fit]	7.31 µM [falling, single point]
CC(C)(C)C(=O)Nc1ccc(-c2cc3cc(Cl)ccc3o2)cc1	28	2.06 µM [rising, partial curve]	
O=C(NC1CCN(Cc2ccccc2)CC1)c1cccc(S(=O)(=O)Nc2cc(C(F)(F)F)ccc2Cl)c1	-6.79	0.164 µM [falling, full curve, poor fit]	
CCOC(=O)c1cnn(-c2ccccc2)c1NC(=O)c1ccccc1	24.9	29.1 µM [rising, partial curve, poor fit]	
CN(C(=O)c1ccc(NC(=O)Cc2cccc(NC(=O)C3CCCN(C(=O)CCc4ccccc4)C3)c2)cc1)C1CCCC1 (stereo not drawn)	-38.9		1.3 µM [falling, partial curve, poor fit]
COc1ccccc1N(C(=O)CNS(=O)(=O)c1ccccc1)C(C(=O)NCc1ccco1)C(C)C (stereo not drawn)	-14.1	3.26 µM [rising, single point]	
CCOC(=O)c1ccc(/[N+]([O-])=C/c2ccccc2)cc1	20	25.9 µM [rising, single point]	0.00517 µM [rising, full curve]
Oc1[nH]c2ccccc2c1C1=NCCCCC1	21.7	0.116 µM [rising, full curve, poor fit]	
CCN(CC)CCN1C(=O)C(=O)/C(=C(/O)c2ccc(S(=O)(=O)N3CCOCC3)cc2)C1c1ccc(C(C)(C)C)cc1 (stereo not drawn)	2.94	0.206 µM [rising, single point]	
COc1ccc(-c2nc(-c3ccccc3)c(-c3cc([N+](=O)[O-])ccc3C)[nH]2)cc1O	-54.2	29.1 µM [falling, partial curve]	25.9 µM [falling, partial curve]
CCN1CCN(C(c2ccccc2F)c2nnnn2Cc2ccc3c(c2)OCO3)CC1 (stereo not drawn)	38.5	29.1 µM [falling, partial curve]	32.6 µM [rising, single point]
CC1CCN(S(=O)(=O)c2nnc(NC(=O)c3cccc([N+](=O)[O-])c3)s2)CC1	19.8	0.58 µM [falling, single point]	
CCc1ccccc1OC[C@@H](O)CN[C@H]1CCCc2ccccc21	-65.3	9.2 µM [falling, partial curve]	
COc1ccc(C(=O)OCC(=O)c2cc(OC)ccc2OC)c(OC)c1	-6.3	8.2 µM [rising, partial curve]	
Cc1cccc(NC(=O)CN2C(=O)NC3(CCCC3)C2=O)n1	-0.423	6.51 µM [falling, single point]	
CCN(c1ccccc1)S(=O)(=O)c1cccc(C(=O)NCCOc2ccccc2OC)c1	-100		29.1 µM [falling, partial curve, poor fit]

A few values from the results shown:
cell number change [%] with CCOC(=O)C1C(=O)CC(C)(O)C(C(=O)OCC)C1c1cccs1 (stereo not drawn) reads 8.43
cell number change [%] with COc1ccc(OC)c(/C=N\NC(=O)c2cc3c(ccc4ccccc43)o2)c1 reads -11.3
cell number change [%] with COc1cnc(-c2ccccn2)nc1N(C)C reads -33.2
cell number change [%] with CC1CCN(S(=O)(=O)c2nnc(NC(=O)c3cccc([N+](=O)[O-])c3)s2)CC1 reads 19.8
